# Data as given in PubChem BioAssay AID504791 (Drosophila RNAi Screening Center, 2011)
# Assay: 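Factors in Argonaute-based small RNA production and activity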 (primary screen)
# Cells: Drosophila S2-derived reporter cells
# Reagents: long dsRNA against Drosophila genes, about 150-250 ng dsRNA per well (siRNA assay); about 80-120 ng (miRNA assay)
# Time to read-out: about 5 days (siRNA assay); about 4 days (miRNA assay)
# Challenge: copper sulfate induction of reporters: 25 µM (siRNA assay); 200 mM stated (miRNA assay), 1-2 days before reading
# Detection: 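Per-well ratio of Renilla over firefly light, expressed relative to that plate's average ratio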
# Call rule: 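First-pass picks had plate-scaled ratios over 1.5 for the siRNA assay, over 1.6 for the miRNA assay, or under 0.6; two distinct dsRNAs had to score alike on retest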
# The deposit covers about 23,000 reagents; below is a random part of those with a known target gene and a result. Over the whole deposit, 199 (0.86%) got an active call. 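Plate-scaled ratios behind the calls are not deposited; printed light signals are raw; many rows marked increased or decreased are still called inactive.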 A plus sign joins genes that one reagent is predicted to hit. Not stated in the record: the direction of the score.
Gene,amplicon,miRNA reporter change,"stable assay Renilla, run 1 (luminescence)","stable assay firefly, run 1 (luminescence)",outcome
ppk30 (pickpocket 30),DRSC15302,,6826,3.97e5,inactive
Brr2 (Brr2 U5 snRNP complex subunit),DRSC10559,,9345,2.57e5,inactive
CG11380,DRSC18632,,4179,1.99e5,inactive
CG11380,DRSC23223,,4243,2.58e5,inactive
Pex7 (Peroxin 7),DRSC10651,,6266,4.31e5,inactive
Grl40a (Gustatory receptor-like 40a),DRSC03677,,4991,2.92e5,inactive
snRNA:U1:95Cc + snRNA:U1:95Cb,DRSC13641,,3872,3.86e5,inactive
Mst57Dc (Male-specific transcript 57Dc),DRSC16745,,7932,3.93e5,inactive
Pc (Polycomb),DRSC11873,,7230,3.41e5,inactive
CG5089,DRSC06914,,11312,4.42e5,inactive
e(y)3 (enhancer of yellow 3),DRSC19450,,6176,4.09e5,inactive
tkv (thickveins),DRSC00860,,4000,3.84e5,inactive
tkv (thickveins),DRSC03623,,14684,4.77e5,inactive
tkv (thickveins),DRSC22606,,5183,4.41e5,inactive
CG31688 + CG31687,DRSC02116,,5779,3.05e5,inactive
M6,DRSC11869,,6428,3.89e5,inactive
CG12773,DRSC18580,,8275,5.29e5,inactive
CG13474,DRSC10018,,8421,5.62e5,inactive
Vha44 (Vacuolar H[+] ATPase 44kD subunit),DRSC07572,,7765,3.47e5,inactive
Vha44 (Vacuolar H[+] ATPase 44kD subunit),DRSC07573,,6063,2.76e5,inactive
CG32271,DRSC08198,,6483,3.71e5,inactive
"Alg9 (ALG9, alpha-1,2-mannosyltransferase)",DRSC14407,,9809,4.18e5,inactive
CG4390,DRSC15572,,10345,3.66e5,inactive
U4-U6-60K (U4-U6 small nuclear riboprotein factor 60K),DRSC10624,,7748,2.57e5,inactive
CG18649,DRSC10334,reporter ratio lowered past the hit cutoff,7094,3.75e5,inactive
GstE2 (Glutathione S transferase E2),DRSC06672,,6599,4.69e5,inactive
CG1638,DRSC15132,,6743,6.20e5,inactive
e(r) (enhancer of rudimentary),DRSC18768,,7394,4.11e5,inactive
CG34231,DRSC05323,,6916,3.91e5,inactive
CG11404,DRSC11656,,7286,3.84e5,inactive
zfh1 (Zn finger homeodomain 1),DRSC14014,,4870,2.47e5,inactive
zfh1 (Zn finger homeodomain 1),DRSC17098,,5732,2.76e5,inactive
ct (cut),DRSC18757,,4135,2.22e5,inactive
mRpL48 (mitochondrial ribosomal protein L48),DRSC00506,,7454,4.82e5,inactive
Khc-73 (Kinesin heavy chain 73),DRSC07449,,9872,4.03e5,inactive
CG9109,DRSC03139,,16271,3.93e5,inactive
Adar (Adenosine deaminase acting on RNA),DRSC17725,,6224,3.50e5,inactive
CG12535,DRSC17838,,5855,3.92e5,inactive
CG3123,DRSC00570,,7768,4.56e5,inactive
Nmt (N-myristoyl transferase),DRSC11236,,7195,4.55e5,inactive
CG31248,DRSC22722,,4123,3.99e5,inactive
ckn (caskin),DRSC06149,reporter ratio lowered past the hit cutoff,7801,4.25e5,inactive
CG3961,DRSC10390,,8152,2.56e5,inactive
CG3961,DRSC10391,,7607,5.92e5,inactive
CG11437,DRSC11659,,5903,3.62e5,inactive
CG4942,DRSC10462,,8744,5.47e5,inactive
lmd (lame duck),DRSC15618,,8578,3.62e5,inactive
CG7601,DRSC14131,,8505,6.34e5,inactive
CG9380,DRSC04549,,7254,5.50e5,inactive
nenya,DRSC13838,,6466,4.08e5,inactive
CG42507 + Trl,DRSC09325,,3248,2.49e5,inactive
CG42507 + Trl,DRSC11308,,5455,1.54e5,inactive
msps (mini spindles),DRSC17004,,10461,4.15e5,inactive
Tsp47F (Tetraspanin 47F),DRSC07325,,6808,3.41e5,inactive
corn (cornetto),DRSC11021,,8567,4.77e5,inactive
corn (cornetto),DRSC21943,,8624,5.53e5,inactive
dsf (dissatisfaction),DRSC03524,,7634,3.33e5,inactive
Nadsyn (NAD synthetase),DRSC20222,,8003,5.75e5,inactive
Or13a (Odorant receptor 13a),DRSC20265,,4660,3.58e5,inactive
TM9SF2 (Transmembrane 9 superfamily protein member 2),DRSC03197,reporter ratio lowered past the hit cutoff,8225,3.65e5,inactive
tud (tudor),DRSC04719,,8326,4.41e5,inactive
CG9733,DRSC16549,,7783,3.25e5,inactive
AstC (Allatostatin C),DRSC02403,,6942,2.71e5,inactive
CG8206,DRSC20093,,5923,2.55e5,inactive
CG30196,DRSC04156,,6219,3.33e5,inactive
TotC (Turandot C),DRSC13449,,3259,3.71e5,inactive
CG17168,DRSC20904,,6968,4.38e5,inactive
NANS (N-acetylneuraminic acid synthase),DRSC15743,,6227,3.09e5,inactive
CG14107,DRSC10110,,6240,3.35e5,inactive
rdx (roadkill),DRSC14526,,4799,1.85e5,inactive
rdx (roadkill),DRSC16580,,7475,3.71e5,inactive
rdx (roadkill),DRSC23120,,4635,3.71e5,inactive
Ror,DRSC03414,,7191,3.85e5,inactive
CG8927,DRSC16458,,7882,3.71e5,inactive
Vha14-2 (Vacuolar H[+] ATPase 14kD subunit 2),DRSC12145,,6334,4.19e5,inactive
Pof (Painting of fourth),DRSC04405,,18632,1.60e6,inactive
Strn-Mlck (Stretchin-Mlck),DRSC05032,,7931,3.55e5,inactive
Strn-Mlck (Stretchin-Mlck),DRSC05598,,6186,4.22e5,inactive
Strn-Mlck (Stretchin-Mlck),DRSC07471,,7490,4.85e5,inactive
hbn (homeobrain),DRSC04082,,5288,2.20e5,inactive
hbn (homeobrain),DRSC04238,,6251,4.68e5,inactive
hbn (homeobrain),DRSC04239,,5806,3.64e5,inactive
hbn (homeobrain),DRSC22436,,3572,3.64e5,inactive
YL-1,DRSC02765,,8672,3.92e5,inactive
Herp (Homocysteine-induced endoplasmic reticulum protein),DRSC02394,,40732,4.75e5,inactive
CG3600 (retired record),DRSC18599,,5031,2.47e5,inactive
CG5539,DRSC04510,,7503,3.83e5,inactive
CG8008,DRSC07053,,7986,5.62e5,inactive
aqrs (aquarius),DRSC14724,,7204,3.75e5,inactive
Ubc7 (Ubiquitin conjugating enzyme 7),DRSC20299,,6674,4.79e5,inactive
TfIIA-S-2,DRSC17791,,6139,3.67e5,inactive
B4,DRSC01868,,6110,1.08e6,inactive
B4,DRSC03175,,8206,4.35e5,inactive
Tfb5 + CG31917,DRSC28677,reporter ratio lowered past the hit cutoff,,,active
CG31559,DRSC12172,,6955,4.21e5,inactive
CG31559,DRSC12270,,7891,4.75e5,inactive
CG9426,DRSC03219,,7052,4.57e5,inactive
tsh (teashirt),DRSC03740,,6343,3.75e5,inactive
CG31769,DRSC01361,,5846,4.84e5,inactive
CG2574,DRSC19862,,5823,4.75e5,inactive
CG14301,DRSC14780,,8845,5.20e5,inactive
CG14731,DRSC14952,,7086,4.88e5,inactive
GCC185 (GRIP and coiled-coil domain containing 185 kDa),DRSC15493,reporter ratio lowered past the hit cutoff,6471,4.67e5,active
CG10734,DRSC05998,,6202,2.94e5,inactive
Scm (Sex comb on midleg),DRSC16853,,6507,3.63e5,inactive
Cyp310a1 (Cytochrome P450 310a1),DRSC03301,,8123,1.82e6,inactive
